The target of assay [1] is T1, GST-SNX17 (full-length SNX17 fused to GST) (UniProt Q8BVL3).
T1 sequence: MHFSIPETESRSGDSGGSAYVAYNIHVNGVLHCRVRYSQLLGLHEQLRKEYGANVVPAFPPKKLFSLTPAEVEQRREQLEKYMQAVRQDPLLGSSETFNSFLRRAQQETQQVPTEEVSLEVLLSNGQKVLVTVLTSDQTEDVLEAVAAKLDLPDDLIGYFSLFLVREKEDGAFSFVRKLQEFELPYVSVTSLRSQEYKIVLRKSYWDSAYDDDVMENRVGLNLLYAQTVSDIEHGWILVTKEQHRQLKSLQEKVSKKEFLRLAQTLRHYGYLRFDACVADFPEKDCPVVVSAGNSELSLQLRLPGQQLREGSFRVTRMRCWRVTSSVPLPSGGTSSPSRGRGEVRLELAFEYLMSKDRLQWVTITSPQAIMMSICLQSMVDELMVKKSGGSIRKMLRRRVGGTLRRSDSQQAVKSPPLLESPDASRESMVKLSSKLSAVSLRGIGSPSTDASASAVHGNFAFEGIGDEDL
The assay can be described thus: pull-down; GST-SNX17 (full length) on glutathione agarose beads incubated with lysates of HEK 293 cells transfected with HA-ApoER2 wild-type or NPxY/A; HUNT buffer, 3 h at 4°C; anti-HA western blot; only the target purified. (In western blotting, separated proteins are transferred to a membrane and probed.)

The chains behind the UniProt entries cited, without tags or fusion partners. Where a name states a change or a piece, a line headed by the entry shows the natural chain unless it says otherwise.
UniProt Q14114: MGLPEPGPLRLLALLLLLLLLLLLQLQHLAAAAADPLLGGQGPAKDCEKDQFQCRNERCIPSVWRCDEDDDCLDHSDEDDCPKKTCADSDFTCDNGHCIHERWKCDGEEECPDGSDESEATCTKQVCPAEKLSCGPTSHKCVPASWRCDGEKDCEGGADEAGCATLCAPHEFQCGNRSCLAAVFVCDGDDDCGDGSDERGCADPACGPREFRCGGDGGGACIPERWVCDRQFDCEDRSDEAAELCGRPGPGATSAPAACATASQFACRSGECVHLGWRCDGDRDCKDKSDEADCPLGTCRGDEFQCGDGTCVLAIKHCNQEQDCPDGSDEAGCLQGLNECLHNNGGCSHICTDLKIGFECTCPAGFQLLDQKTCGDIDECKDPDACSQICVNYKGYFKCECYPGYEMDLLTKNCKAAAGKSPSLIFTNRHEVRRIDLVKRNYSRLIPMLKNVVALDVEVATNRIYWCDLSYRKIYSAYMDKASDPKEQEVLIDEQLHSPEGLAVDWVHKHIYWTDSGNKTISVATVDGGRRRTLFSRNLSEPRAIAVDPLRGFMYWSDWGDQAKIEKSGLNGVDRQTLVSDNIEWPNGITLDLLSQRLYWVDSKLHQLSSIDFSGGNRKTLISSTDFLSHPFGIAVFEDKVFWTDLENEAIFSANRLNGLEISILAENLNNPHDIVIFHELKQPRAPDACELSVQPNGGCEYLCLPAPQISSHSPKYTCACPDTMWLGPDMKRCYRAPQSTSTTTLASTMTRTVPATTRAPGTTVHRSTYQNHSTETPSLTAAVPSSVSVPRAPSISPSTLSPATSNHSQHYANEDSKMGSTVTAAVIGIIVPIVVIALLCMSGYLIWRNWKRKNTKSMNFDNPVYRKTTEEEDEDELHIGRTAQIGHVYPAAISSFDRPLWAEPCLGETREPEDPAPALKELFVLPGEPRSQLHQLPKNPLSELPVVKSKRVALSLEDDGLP

The target in assay [2] is T2, myc-SNX17 (full-length mouse SNX17 with a 9xmyc epitope) (mouse) (UniProt Q8BVL3).
T2 sequence: T1 sequence
The assay can be described thus: co-IP; extracts of HEK293 cells transiently transfected with myc-SNX17 and HA-ApoER2 (wild type or NPxA); immunoprecipitated with anti-myc, blotted with anti-HA.

The target in assay [3] is GST-ApoER2 (full-length cytoplasmic domain of ApoER2 fused to GST). The assay can be described thus: pull-down; GST-ApoER2 tail on glutathione agarose beads incubated with lysates of HEK 293 cells transfected with myc-SNX17 constructs; HUNT buffer (20 mM Tris-HCl pH 8.0, 100 mM NaCl, 1 mM EDTA, 0.5% NP-40), 3 h at 4°C; anti-myc western blot; only the target purified.

The text below walks through data of article PMC3976305.

These are yes or no findings as the source states them, for the method shown. In cells and extracts the contact can be indirect. For part of these data: Binding calls can cover weak binding; strength is not graded here. Tags and fused reporters may be left off the sequences shown.

With “HA-ApoER2 mutated (NPxY/A) (from UniProt Q14114) (receptor)”, the binding entry in assay [1] and in assay [2] was “no binding” each time.

B1: myc-SNX17 2-250 (domain or fragment, UniProt Q8BVL3 2-250)
chain: HFSIPETESRSGDSGGSAYVAYNIHVNGVLHCRVRYSQLLGLHEQLRKEYGANVVPAFPPKKLFSLTPAEVEQRREQLEKYMQAVRQDPLLGSSETFNSFLRRAQQETQQVPTEEVSLEVLLSNGQKVLVTVLTSDQTEDVLEAVAAKLDLPDDLIGYFSLFLVREKEDGAFSFVRKLQEFELPYVSVTSLRSQEYKIVLRKSYWDSAYDDDVMENRVGLNLLYAQTVSDIEHGWILVTKEQHRQLKSL
As to B1, the binding entry in assay [3] is on record as “no binding”.

B2: myc-SNX17 105–470 (domain or fragment, UniProt Q8BVL3 105-470)
chain: AQQETQQVPTEEVSLEVLLSNGQKVLVTVLTSDQTEDVLEAVAAKLDLPDDLIGYFSLFLVREKEDGAFSFVRKLQEFELPYVSVTSLRSQEYKIVLRKSYWDSAYDDDVMENRVGLNLLYAQTVSDIEHGWILVTKEQHRQLKSLQEKVSKKEFLRLAQTLRHYGYLRFDACVADFPEKDCPVVVSAGNSELSLQLRLPGQQLREGSFRVTRMRCWRVTSSVPLPSGGTSSPSRGRGEVRLELAFEYLMSKDRLQWVTITSPQAIMMSICLQSMVDELMVKKSGGSIRKMLRRRVGGTLRRSDSQQAVKSPPLLESPDASRESMVKLSSKLSAVSLRGIGSPSTDASASAVHGNFAFEGIGDEDL
Regarding B2, the binding result in assay [3] is on record as “binds”.

B3: myc-SNX17 200–470 (domain or fragment, UniProt Q8BVL3 200-470)
chain: VLRKSYWDSAYDDDVMENRVGLNLLYAQTVSDIEHGWILVTKEQHRQLKSLQEKVSKKEFLRLAQTLRHYGYLRFDACVADFPEKDCPVVVSAGNSELSLQLRLPGQQLREGSFRVTRMRCWRVTSSVPLPSGGTSSPSRGRGEVRLELAFEYLMSKDRLQWVTITSPQAIMMSICLQSMVDELMVKKSGGSIRKMLRRRVGGTLRRSDSQQAVKSPPLLESPDASRESMVKLSSKLSAVSLRGIGSPSTDASASAVHGNFAFEGIGDEDL
As for B3, in assay [3], the binding entry is “no binding”.

B4: myc-SNX17 (full-length mouse SNX17 with a 9xmyc epitope) (protein, UniProt Q8BVL3 1-470)
chain: T1 sequence
Consider B4, for which, in assay [3], the binding entry was “binds”.
